Laboratory results: US6794383B2, “Heart muscular cell apoptosis inhibitors and remedies/preventives for heart diseases” (Takeda Chemical Industries, Ltd., priority 2000, dated 2004)
Some entries share one result that the patent states for a list of compounds.

Each compound was assayed on primary heart muscle cells derived from newborn rats (assay: Inhibitory activity on heart muscle cell apoptosis (serum-free culture, viable cell number by WST-8)).
Assay type: cell-based, rat
Excerpt: Newborn rats (within 1 day after birth) were obtained from pregnant Wister rats purchased from Charles River, anesthetized under ether, and sterilized with 70% ethanol, and then their hearts were excised with tweezers. The excised hearts were washed with a phosphate-buffered physiological saline (T900; Takara) and cut into pieces with surgical scissors. These tissue pieces were washed 4 to 5 times with a phosphate-buffered physiological saline to remove a majority of blood-derived non-heart muscle cells. To the tissue pieces derived from 10 newborns, 5 ml of enzyme solution (1.25 mg trypsin (Difco) and 0.25 mg collagenase (Sigma) per ml of phosphate-buffered saline (PBS)) was added and the mixture was stirred with a stirrer at 37° C. for 15 mins. Another 2.5 ml enzyme solution was then added twice repeatedly at a 15-minutes interval. Then, Medium 199 (Gibco) containing 10% fetal calf serum (Biowiker) was added in a half volume of the enzyme solution to terminate the enzyme reaction. The cells were filtered through a Cell Strainer (Falcon) and then centrifuged at 400×g for 5 minutes, whereby the cells were collected.
The cells thus collected from 10 newborns were suspended in 50 ml Medium 199 containing 10% fetal calf serum, plated onto 100 mm Petri dishes (Iwaki) in a volume of 10 ml/dish and cultured for 1 hour in a CO2 incubator set at 5% CO2 and 37° C. The cells were then recovered, filtered through a Cell Strainer and centrifuged at 400×g for 5 minutes to collect the primary heart muscle cells derived from newborn rats.
Then, the heart muscle cells from 10 newborn rats were suspended in 2 ml low-isotonic solution (prepared by dissolving 8.29 g NH4Cl, 1.0 g KHCO3, 37 mg EDTA/2Na (ethylenediaminetetraacetic acid disodium)(Dojindo) in 1 L of water) and left for 3 minutes to disrupt erythrocytes. After 10 ml Medium 199 containing 10% fetal calf serum was added thereto, the primary heart muscle cells from newborn rats were collected by centrifugation at 400×g for 5 minutes. The cells were suspended in Medium 199 containing 10% fetal calf serum and then filtered through a cell strainer. After 0.3% trypan blue was added to, and mildly mixed with, an aliquot of the resulting cell suspension, the number of heart muscle cells was counted on an erythrocyte counting plate.
The primary heart muscle cells from newborn rats were suspended at a density of 3×10^6 cells/ml in Medium 199 containing 10% fetal calf serum, put onto a 96-well plate in a volume of 0.1 ml/well, and then cultured in a CO2 incubator set at 5% CO2 and 37° C. After the plate was stirred with a micromixer (Taiyo Kagaku Kogyo), the medium was exchanged 3 times with serum-free Medium 199, and then test compounds (Compounds 1 to 5 obtained in Reference Examples) were added thereto. The cells were cultured for additional 4 days to induce apoptosis. Then, fetal calf serum was added thereto at a concentration of 10%, and the cells were further cultured for about 17 hours in a CO2 incubator set at 5% CO2 and 37° C. Finally, the number of viable cells was determined with Cell Counting Kit (Dojindo) using WST-8 (2-(2-methoxy-4-nitrophenyl)-3-(4-nitrophenyl)-5-(2,4-disulfophenyl)-2H-tetrazolium, monosodium salt) as the coloring substrate to determine the inhibition of the heart muscle cell apoptosis.
The above-mentioned exeriment was tripicated in an independent manner. […]

Row | Structure (SMILES) | inhibitory activity on heart muscle cell apoptosis (in words)
1 | CCOC(=O)/C=C1\NC(=O)c2ccccc2S1 [Compound 4, Ethyl 2-(4-oxo-3,4-dihydro-2H-1,3-benzothiazin-2-ylidene)acetate] | have the inhibitory activiy on heart muscle cell apoptosis
2 | O=c1nc(-c2cccnc2)sc2ccccc12 [Compound 2, 2-(3-pyridyl)-4H-1,3-benzothiazin-4-one] | have the inhibitory activiy on heart muscle cell apoptosis
3 | O=c1nc(-c2ccncc2)sc2ccccc12 [Compound 3, 2-(4-pyridyl)-4H-1,3-benzothiazin-4-one] | have the inhibitory activiy on heart muscle cell apoptosis
4 | O=c1nc(-c2ccccn2)sc2ccccc12 [Compound 1, 2-(2-Pyridyl)-4H-1,3-benzothiazin-4-one] | have the inhibitory activiy on heart muscle cell apoptosis
5 | O=C1N/C(=C\C(=O)N2CCCCC2)Sc2ccccc21 [Compound 5, 2-[2-oxo-2-(1-piperidinyl)ethylidene]-2,3-dihydro-4H-1,3-benzothiazin-4-one] | have the inhibitory activiy on heart muscle cell apoptosis
